In the supplement of paper PMC11006884:
Most of the targets with a hit are listed elsewhere, so they are rarer here than in the full data. The data scatter; read single values as rough. The entries are a selection whose mix differs from that of the whole data set.

Amino acid sequences for entries named in this document (tags omitted). A change or cut given only in a name is not applied to a line headed by its entry.
UniProt Q52LJ0: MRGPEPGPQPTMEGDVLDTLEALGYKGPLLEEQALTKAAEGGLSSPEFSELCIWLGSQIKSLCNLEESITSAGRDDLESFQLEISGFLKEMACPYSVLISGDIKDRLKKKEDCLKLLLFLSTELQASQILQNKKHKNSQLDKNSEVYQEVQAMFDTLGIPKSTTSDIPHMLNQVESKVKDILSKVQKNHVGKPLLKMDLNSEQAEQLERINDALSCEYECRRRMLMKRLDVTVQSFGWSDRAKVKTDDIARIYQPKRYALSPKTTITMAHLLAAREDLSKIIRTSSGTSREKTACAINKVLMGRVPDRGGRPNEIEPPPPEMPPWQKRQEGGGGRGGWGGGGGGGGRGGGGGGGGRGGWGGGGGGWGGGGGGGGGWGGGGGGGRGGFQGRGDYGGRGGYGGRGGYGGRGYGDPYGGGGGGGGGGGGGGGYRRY
UniProt Q1KMD3: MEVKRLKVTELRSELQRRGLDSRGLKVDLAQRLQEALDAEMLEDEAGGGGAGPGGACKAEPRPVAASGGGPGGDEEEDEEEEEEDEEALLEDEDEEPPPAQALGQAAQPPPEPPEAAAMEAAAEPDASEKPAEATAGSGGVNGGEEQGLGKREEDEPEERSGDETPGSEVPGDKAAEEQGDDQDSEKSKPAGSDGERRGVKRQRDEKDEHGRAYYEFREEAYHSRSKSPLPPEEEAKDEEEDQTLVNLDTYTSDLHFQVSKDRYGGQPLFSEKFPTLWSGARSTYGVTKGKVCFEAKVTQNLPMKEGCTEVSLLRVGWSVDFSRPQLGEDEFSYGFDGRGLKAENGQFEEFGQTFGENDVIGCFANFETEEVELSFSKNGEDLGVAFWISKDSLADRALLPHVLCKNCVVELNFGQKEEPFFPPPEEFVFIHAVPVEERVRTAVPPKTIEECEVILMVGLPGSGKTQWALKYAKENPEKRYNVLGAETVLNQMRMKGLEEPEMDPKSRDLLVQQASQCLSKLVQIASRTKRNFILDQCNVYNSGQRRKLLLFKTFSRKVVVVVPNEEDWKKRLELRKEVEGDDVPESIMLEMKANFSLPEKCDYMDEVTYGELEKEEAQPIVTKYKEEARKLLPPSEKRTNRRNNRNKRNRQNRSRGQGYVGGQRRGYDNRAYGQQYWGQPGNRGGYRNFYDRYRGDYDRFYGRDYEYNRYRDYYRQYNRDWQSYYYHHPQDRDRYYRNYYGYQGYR
UniProt Q16352: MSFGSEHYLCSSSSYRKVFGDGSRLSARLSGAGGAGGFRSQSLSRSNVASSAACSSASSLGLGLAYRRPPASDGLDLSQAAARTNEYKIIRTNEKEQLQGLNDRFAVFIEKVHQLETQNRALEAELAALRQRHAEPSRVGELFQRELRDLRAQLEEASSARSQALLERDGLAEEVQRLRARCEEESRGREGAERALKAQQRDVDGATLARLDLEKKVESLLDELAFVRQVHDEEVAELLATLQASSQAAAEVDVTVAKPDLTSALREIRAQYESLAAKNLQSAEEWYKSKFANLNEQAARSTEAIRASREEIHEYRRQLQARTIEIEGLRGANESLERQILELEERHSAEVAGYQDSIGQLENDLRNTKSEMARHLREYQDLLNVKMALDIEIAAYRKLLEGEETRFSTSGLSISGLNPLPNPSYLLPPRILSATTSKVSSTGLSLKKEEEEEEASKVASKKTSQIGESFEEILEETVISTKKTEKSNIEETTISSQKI
UniProt Q15652: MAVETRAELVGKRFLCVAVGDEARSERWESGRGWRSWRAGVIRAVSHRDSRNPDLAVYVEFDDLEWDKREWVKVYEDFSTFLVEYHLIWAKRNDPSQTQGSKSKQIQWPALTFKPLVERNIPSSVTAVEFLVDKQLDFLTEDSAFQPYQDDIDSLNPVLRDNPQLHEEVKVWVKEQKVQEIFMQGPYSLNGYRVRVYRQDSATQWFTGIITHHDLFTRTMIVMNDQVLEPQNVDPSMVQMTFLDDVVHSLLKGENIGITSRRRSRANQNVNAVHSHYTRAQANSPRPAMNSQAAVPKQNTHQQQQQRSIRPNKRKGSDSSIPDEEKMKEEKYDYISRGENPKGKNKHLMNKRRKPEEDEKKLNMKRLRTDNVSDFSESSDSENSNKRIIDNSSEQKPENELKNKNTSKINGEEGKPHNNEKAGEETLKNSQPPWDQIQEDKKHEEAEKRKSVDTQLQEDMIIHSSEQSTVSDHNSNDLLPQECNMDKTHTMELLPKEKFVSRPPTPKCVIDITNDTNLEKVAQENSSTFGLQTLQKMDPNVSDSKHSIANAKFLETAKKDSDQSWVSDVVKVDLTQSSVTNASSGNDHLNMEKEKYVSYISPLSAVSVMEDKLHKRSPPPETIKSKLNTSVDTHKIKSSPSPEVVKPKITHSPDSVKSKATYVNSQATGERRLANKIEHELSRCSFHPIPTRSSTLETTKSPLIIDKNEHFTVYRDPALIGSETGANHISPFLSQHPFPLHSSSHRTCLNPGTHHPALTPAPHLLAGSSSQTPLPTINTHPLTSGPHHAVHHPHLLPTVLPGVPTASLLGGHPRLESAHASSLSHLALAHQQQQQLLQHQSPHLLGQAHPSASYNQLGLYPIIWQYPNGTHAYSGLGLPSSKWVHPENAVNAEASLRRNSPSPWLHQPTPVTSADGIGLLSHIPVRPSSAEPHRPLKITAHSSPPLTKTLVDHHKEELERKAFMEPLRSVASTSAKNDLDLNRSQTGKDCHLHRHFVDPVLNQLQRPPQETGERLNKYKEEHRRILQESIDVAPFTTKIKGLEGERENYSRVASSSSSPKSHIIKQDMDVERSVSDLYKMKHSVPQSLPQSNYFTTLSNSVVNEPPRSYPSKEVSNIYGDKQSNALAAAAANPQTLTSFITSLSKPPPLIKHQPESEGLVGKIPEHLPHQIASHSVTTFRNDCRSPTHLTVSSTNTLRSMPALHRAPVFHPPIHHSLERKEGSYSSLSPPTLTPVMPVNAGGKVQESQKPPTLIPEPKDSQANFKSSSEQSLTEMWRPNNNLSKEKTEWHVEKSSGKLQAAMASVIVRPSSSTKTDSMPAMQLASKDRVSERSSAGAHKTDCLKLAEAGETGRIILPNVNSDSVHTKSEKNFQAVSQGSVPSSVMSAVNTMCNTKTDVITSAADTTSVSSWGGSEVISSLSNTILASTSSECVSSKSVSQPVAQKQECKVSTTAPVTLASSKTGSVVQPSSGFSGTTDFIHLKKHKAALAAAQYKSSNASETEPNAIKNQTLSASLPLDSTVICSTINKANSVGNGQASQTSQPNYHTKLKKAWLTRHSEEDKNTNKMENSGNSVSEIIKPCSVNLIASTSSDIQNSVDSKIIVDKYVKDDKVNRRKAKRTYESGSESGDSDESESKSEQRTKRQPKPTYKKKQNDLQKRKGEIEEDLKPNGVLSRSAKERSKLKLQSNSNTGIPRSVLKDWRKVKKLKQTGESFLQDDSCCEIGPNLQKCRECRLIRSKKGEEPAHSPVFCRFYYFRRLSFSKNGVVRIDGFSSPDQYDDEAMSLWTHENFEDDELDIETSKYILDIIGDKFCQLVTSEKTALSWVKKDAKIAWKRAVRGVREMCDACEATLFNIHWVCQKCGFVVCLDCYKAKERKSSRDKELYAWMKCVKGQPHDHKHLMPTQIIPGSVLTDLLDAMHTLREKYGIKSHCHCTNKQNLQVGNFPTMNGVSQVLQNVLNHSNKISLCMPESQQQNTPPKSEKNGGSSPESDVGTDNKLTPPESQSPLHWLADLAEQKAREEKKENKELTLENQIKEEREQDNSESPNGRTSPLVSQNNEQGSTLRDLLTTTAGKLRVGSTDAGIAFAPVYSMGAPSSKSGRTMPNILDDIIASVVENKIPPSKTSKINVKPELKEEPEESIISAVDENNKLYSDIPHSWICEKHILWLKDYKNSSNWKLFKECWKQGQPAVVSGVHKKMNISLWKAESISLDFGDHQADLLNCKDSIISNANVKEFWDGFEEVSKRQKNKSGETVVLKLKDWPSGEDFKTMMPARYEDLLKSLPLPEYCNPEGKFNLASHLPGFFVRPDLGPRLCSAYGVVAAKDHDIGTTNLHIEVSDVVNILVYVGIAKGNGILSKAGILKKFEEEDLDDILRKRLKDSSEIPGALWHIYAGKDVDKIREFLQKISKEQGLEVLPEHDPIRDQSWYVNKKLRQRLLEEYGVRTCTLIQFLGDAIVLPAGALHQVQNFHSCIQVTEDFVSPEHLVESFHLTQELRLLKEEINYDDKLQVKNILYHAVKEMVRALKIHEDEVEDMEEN
UniProt Q16512: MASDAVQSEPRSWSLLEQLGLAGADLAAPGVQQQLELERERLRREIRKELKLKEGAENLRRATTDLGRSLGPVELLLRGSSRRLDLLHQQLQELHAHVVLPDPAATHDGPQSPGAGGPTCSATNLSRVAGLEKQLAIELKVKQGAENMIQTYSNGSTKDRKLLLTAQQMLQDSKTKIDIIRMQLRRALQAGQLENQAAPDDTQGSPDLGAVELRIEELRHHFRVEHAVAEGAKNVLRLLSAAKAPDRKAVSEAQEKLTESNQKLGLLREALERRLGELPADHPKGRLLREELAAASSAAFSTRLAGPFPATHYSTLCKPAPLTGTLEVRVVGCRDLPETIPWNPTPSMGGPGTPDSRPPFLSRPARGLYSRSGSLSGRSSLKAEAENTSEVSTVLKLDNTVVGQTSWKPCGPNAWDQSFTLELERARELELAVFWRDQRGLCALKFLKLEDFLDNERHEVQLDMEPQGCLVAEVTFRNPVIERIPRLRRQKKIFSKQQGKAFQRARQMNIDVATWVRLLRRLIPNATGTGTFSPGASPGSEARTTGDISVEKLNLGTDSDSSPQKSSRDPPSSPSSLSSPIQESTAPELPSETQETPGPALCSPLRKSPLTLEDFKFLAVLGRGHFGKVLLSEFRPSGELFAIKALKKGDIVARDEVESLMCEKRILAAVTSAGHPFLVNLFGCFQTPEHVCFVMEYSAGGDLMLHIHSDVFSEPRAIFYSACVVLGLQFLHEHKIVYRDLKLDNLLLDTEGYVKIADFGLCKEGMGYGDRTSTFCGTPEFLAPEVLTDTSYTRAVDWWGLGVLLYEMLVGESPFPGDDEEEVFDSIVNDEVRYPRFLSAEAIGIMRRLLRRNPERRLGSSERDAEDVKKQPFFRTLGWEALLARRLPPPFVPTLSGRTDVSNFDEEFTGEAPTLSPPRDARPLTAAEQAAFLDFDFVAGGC
UniProt Q15075: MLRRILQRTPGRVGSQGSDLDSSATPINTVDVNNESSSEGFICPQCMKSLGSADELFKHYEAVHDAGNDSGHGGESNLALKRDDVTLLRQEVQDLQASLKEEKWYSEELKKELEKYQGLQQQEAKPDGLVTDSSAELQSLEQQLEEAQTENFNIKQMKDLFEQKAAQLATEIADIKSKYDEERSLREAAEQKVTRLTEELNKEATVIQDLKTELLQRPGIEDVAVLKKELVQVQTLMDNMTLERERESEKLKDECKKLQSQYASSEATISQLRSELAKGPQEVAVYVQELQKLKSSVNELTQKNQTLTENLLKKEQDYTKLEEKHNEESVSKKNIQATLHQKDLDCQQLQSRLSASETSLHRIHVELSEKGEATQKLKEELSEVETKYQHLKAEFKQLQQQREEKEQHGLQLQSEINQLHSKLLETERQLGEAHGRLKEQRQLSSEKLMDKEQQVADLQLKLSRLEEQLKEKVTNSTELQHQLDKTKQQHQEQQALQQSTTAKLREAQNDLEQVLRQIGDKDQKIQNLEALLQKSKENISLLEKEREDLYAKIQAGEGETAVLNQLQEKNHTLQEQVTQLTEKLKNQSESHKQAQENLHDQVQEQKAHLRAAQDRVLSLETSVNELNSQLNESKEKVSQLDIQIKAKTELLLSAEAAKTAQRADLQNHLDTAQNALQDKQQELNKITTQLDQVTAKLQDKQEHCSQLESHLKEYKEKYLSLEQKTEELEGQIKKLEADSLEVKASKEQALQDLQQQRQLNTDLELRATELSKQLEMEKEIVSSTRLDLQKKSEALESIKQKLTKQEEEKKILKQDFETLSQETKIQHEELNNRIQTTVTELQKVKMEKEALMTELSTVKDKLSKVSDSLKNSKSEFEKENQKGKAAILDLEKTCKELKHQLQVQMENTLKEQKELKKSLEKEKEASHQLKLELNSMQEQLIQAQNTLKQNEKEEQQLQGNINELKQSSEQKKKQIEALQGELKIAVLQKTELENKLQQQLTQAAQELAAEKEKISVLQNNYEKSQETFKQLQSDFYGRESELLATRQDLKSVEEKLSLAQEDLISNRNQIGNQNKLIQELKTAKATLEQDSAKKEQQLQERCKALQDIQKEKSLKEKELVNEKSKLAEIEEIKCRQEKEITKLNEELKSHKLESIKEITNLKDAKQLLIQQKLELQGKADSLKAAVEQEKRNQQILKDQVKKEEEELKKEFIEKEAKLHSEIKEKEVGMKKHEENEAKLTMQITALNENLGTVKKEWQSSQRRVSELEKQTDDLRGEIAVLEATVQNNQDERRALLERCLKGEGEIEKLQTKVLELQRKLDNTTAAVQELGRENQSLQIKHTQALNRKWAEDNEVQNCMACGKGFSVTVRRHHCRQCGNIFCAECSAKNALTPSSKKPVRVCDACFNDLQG

Compound: COC(=O)/C=C/c1ccccc1 [methyl cinnamate]
Assay: log2 ratio of iodoacetamide-alkyne labeling of the cysteine site, DMSO over compound (competition); higher = stronger covalent engagement of the cysteine by the compound, active = 1 or more
Conditions: 500 µM; treatment time 1 h; system: HEK293T cell lysate
Method in brief: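 The log2 competition ratio per cysteine is defined as mean reporter intensity in control channels over mean reporter intensity in compound channels. Lysate from HEK293T cells (2 mg/mL) received electrophile (500 µM) or vehicle for 1 h at ambient temperature, followed by iodoacetamide alkyne for 1 h. Samples were clicked to sCIP-TMT reagents, pooled, trypsin-digested overnight at 37 °C, streptavidin-enriched, acid-eluted and run on Orbitrap Eclipse LC-MS/MS with FAIMS, with quantification in FragPipe. Three replicates with duplicate channels were used, and any cysteine quantified in only one replicate was excluded.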

log2 ratio of iodoacetamide-alkyne labeling, inactive:
FAM98B C63 (UniProt Q52LJ0) -0.0358
HNRNPUL2 C308 (UniProt Q1KMD3) 0.241
QSER1 C530 (UniProt Q2KHR3) 0.0977
UniProt Q15365_C355 0.222
SEC23A C432 (UniProt Q15436) 0.414
ACOX1 C199 (UniProt Q15067) -0.00385
UniProt Q16352_C54 0.284
MAP7D1 C361 (UniProt Q3KQU3) 0.279
LLGL1 C697 (UniProt Q15334) 0.258
SLC1A5 C363 (UniProt Q15758) 0.422
LRRC41 C792 (UniProt Q15345) 0.115
RRS1 C52 (UniProt Q15050) 0.0753
TWISTNB C5 (UniProt Q3B726) 0.461
TRIP13 C14 (UniProt Q15645) 0.0795
INF2 C971 (UniProt Q27J81) 0.179
JMJD1C C508 (UniProt Q15652) 0.405
MAP7D1 C373 (UniProt Q3KQU3) 0.105
UniProt Q3LXA3_C24 -0.448
SETDB1 C1226 (UniProt Q15047) 0.305
PDCD4 C150 (UniProt Q53EL6) 0.537
HNRNPUL2 C57 (UniProt Q1KMD3) 0.262
PDS5A C1084 (UniProt Q29RF7) 0.0246
RBBP7 C202 (UniProt Q16576) 0.0827
MED1 C800 (UniProt Q15648) -0.19
PCM1 C957 (UniProt Q15154) 0.424
LRRC14 C15 (UniProt Q15048) 0.291
UniProt Q16512_C120 0.00511
UniProt Q15418_C552 0.104
UniProt Q2M389_C936 0.212
EEA1 C1405 (UniProt Q15075) 0.124
UniProt Q15365_C118 0.52
UniProt Q15149_C3295 0.436
PCK2 C431 (UniProt Q16822) -0.11
SURF2 C127 (UniProt Q15527) 0.0632
GEN1 C866 (UniProt Q17RS7) 0.472
AMOT C741 (UniProt Q4VCS5) 0.0438
HNRNPUL2 C452 (UniProt Q1KMD3) -0.123

Two entries picked at random from the list so far, as already listed:
log2 ratio of iodoacetamide-alkyne labeling, inactive:
UniProt Q16512_C120 0.00511
TWISTNB C5 (UniProt Q3B726) 0.461
